Amino acid sequences for entries named in this document (tags omitted). A change or cut given only in a name is not applied to a line headed by its entry.
UniProt Q12809: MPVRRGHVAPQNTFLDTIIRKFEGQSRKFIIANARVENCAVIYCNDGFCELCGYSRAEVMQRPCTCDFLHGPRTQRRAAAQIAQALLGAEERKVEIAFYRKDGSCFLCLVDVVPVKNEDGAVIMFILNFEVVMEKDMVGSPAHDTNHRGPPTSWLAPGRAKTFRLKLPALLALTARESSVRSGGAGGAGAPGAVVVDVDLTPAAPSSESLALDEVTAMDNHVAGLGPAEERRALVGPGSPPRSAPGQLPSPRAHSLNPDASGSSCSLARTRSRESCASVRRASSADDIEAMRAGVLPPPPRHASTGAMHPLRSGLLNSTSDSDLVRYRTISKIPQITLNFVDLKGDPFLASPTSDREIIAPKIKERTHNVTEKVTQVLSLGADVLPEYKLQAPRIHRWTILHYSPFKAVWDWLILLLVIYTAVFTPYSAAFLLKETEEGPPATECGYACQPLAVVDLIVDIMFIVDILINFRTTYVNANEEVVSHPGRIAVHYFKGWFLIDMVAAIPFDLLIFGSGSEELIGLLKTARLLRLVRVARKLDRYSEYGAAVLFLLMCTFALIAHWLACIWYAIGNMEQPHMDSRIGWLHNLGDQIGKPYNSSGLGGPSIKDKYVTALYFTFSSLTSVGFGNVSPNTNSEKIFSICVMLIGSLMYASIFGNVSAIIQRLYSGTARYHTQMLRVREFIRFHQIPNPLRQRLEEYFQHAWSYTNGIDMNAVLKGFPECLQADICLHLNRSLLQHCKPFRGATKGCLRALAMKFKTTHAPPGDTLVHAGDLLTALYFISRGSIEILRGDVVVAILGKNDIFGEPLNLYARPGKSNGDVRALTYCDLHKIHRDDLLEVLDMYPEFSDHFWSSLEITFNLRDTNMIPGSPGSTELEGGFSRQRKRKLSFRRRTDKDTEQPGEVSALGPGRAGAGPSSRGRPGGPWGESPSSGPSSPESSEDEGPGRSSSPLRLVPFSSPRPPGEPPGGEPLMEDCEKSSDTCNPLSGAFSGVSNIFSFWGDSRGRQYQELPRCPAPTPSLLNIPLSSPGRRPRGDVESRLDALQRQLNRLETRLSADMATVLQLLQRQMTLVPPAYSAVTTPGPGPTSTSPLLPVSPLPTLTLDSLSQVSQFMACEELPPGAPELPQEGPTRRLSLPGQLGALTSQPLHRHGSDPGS

In patent US20060111357A1, “Quinoline compounds for use in mch receptor related disorders” (priority 2003, published 2006):

Molecular target: HERG channels (Homo sapiens, UniProt Q12809)
Test: HERG selectivity method, whole-cell patch-clamp recordings

CN(C)CCC=C1c2ccccc2COc2ccccc21 [Doxepine]
Ki: 24 µM

C(=C\c1ccccc1)/CN1CCN(C(c2ccccc2)c2ccccc2)CC1 [Cinnarizine]
Ki: 0.36 µM
